Data from the supplement of paper PMC10849652.
The other results are listed elsewhere or left out.

By UniProt entry, the sequences of proteins in these tests, tags left out. Where a name states a change or a piece, a line headed by the entry shows the natural chain unless it says otherwise.
UniProt P30566: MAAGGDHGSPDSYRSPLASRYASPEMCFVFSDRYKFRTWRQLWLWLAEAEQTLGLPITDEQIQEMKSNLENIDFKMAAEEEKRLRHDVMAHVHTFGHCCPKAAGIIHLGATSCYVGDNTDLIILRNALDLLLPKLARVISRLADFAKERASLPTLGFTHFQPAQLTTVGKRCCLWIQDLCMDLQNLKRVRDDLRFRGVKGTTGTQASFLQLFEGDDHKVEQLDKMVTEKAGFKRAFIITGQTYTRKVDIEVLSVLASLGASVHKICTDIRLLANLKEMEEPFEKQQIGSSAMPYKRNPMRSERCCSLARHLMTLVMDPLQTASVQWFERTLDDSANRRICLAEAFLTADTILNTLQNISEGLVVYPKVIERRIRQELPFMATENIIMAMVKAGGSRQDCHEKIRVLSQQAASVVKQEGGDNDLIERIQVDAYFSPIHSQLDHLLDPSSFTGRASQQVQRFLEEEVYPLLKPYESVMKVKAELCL
UniProt Q9UNA0: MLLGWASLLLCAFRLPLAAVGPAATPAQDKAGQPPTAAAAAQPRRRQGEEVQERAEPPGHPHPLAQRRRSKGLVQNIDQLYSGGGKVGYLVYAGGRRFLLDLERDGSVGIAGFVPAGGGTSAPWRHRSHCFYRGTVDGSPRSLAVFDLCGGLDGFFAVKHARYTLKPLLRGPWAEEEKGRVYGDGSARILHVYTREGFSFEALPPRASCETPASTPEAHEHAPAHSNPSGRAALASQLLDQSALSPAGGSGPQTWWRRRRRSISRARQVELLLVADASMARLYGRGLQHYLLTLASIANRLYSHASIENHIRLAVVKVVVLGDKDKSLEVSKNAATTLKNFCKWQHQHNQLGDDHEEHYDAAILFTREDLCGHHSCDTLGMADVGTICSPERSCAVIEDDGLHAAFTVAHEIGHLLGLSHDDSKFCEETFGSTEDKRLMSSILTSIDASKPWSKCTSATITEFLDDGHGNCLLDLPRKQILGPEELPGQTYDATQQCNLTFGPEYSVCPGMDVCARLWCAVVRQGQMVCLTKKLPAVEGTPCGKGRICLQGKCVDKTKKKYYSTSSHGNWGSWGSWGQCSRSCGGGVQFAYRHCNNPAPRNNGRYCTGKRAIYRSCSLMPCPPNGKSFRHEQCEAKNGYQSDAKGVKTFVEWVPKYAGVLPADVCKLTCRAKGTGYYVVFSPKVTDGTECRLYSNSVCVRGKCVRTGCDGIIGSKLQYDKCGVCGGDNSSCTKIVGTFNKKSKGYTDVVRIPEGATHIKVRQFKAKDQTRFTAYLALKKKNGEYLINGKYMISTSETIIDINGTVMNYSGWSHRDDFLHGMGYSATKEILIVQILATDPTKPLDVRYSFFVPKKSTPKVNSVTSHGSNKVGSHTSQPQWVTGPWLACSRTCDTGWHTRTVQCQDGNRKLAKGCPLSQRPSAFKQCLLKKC
UniProt Q6ULP2: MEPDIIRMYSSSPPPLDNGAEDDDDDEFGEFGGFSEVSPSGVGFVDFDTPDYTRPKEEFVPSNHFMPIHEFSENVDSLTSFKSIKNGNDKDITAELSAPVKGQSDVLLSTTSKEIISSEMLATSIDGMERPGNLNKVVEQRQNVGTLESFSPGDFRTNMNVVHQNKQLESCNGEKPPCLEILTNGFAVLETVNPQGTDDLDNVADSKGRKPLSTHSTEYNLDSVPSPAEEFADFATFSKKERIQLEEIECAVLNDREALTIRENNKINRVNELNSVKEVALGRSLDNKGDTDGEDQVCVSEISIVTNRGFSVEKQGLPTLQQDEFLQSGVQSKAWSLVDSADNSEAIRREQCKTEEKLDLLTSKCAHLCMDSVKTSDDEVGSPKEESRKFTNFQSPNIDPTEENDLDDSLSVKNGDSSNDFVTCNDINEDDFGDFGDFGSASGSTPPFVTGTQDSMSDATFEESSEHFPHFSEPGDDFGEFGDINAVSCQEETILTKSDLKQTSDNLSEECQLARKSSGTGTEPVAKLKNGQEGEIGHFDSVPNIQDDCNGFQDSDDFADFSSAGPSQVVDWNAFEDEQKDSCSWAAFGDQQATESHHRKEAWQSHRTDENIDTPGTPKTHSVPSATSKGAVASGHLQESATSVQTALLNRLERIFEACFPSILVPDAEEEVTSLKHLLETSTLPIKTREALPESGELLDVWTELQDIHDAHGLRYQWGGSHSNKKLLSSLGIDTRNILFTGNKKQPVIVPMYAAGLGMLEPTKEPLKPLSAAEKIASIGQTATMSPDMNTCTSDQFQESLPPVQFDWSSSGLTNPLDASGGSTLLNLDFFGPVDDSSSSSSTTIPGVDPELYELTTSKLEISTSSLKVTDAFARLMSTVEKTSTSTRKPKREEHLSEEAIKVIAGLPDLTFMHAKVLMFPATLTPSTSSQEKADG
UniProt Q13705: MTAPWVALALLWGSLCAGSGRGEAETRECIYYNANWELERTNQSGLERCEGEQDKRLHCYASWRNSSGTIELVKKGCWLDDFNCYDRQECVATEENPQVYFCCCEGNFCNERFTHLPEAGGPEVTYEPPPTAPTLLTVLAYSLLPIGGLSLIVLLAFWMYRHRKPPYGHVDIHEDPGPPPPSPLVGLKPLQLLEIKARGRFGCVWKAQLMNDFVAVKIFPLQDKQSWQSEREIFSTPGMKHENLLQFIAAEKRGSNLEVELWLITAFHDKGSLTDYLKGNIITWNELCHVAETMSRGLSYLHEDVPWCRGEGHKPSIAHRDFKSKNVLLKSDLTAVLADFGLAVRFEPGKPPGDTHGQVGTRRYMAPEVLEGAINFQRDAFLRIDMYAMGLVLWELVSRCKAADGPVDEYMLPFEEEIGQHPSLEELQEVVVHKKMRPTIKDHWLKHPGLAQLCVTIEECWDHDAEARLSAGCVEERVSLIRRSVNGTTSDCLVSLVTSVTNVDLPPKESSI
UniProt Q96HN2, whole entry, looked up: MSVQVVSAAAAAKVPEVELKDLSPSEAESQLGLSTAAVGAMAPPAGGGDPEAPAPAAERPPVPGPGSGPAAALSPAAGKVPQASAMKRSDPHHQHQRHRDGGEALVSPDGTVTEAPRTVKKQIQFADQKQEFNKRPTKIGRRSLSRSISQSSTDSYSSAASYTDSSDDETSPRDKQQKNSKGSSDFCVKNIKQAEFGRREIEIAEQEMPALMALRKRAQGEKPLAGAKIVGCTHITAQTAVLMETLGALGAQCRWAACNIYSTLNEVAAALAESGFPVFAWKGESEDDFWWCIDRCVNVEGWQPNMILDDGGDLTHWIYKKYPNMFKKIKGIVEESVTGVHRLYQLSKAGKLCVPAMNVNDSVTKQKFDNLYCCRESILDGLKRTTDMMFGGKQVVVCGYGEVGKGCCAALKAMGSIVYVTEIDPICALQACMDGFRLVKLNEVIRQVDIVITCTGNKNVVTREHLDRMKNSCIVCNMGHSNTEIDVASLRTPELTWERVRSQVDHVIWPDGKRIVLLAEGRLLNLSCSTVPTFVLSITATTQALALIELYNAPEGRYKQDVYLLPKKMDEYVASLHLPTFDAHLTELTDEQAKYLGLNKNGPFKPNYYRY
UniProt Q9GZN1, whole entry, looked up: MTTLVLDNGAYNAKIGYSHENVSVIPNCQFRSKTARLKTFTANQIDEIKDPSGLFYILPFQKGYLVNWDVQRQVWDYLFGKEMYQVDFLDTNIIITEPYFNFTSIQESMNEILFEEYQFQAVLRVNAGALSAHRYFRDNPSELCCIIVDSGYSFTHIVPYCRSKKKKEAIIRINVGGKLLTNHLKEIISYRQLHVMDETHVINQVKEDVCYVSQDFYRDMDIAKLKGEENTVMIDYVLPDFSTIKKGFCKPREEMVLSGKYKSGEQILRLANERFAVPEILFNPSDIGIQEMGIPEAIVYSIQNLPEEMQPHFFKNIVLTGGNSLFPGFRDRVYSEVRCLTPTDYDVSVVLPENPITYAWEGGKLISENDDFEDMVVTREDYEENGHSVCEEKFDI
UniProt Q9BRQ8: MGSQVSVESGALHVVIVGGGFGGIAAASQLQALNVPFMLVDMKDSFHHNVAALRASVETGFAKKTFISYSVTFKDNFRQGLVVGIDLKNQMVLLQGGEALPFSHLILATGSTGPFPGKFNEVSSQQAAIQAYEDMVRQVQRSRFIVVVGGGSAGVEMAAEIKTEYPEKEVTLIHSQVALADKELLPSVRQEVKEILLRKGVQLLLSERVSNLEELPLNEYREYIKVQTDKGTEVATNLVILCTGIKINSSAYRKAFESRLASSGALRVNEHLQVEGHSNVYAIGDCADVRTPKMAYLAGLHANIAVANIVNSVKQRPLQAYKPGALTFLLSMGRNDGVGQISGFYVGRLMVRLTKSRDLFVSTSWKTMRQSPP
UniProt Q9UKV8, whole entry, looked up: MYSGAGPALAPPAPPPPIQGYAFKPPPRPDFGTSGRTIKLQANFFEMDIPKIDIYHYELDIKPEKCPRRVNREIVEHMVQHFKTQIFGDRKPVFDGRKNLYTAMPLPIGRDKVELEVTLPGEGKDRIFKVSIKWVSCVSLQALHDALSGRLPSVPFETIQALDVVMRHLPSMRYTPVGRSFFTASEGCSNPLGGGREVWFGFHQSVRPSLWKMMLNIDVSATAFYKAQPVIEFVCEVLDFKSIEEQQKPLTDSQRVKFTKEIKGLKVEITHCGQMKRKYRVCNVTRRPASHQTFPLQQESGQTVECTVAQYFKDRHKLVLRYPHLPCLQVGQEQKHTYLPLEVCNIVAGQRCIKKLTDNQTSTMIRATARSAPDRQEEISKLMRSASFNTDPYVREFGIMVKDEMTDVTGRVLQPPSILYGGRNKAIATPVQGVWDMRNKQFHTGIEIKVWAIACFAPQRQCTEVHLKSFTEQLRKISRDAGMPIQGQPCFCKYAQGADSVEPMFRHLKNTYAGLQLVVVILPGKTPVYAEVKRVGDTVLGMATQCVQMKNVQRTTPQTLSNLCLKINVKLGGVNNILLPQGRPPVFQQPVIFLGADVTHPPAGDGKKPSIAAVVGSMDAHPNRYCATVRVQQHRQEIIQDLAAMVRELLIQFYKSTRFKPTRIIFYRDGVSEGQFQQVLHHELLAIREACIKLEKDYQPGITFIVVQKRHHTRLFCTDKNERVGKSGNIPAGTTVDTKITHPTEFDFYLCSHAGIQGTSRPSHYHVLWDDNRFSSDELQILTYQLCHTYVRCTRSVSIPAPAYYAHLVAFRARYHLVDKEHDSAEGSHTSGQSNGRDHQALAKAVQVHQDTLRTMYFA
UniProt P33121: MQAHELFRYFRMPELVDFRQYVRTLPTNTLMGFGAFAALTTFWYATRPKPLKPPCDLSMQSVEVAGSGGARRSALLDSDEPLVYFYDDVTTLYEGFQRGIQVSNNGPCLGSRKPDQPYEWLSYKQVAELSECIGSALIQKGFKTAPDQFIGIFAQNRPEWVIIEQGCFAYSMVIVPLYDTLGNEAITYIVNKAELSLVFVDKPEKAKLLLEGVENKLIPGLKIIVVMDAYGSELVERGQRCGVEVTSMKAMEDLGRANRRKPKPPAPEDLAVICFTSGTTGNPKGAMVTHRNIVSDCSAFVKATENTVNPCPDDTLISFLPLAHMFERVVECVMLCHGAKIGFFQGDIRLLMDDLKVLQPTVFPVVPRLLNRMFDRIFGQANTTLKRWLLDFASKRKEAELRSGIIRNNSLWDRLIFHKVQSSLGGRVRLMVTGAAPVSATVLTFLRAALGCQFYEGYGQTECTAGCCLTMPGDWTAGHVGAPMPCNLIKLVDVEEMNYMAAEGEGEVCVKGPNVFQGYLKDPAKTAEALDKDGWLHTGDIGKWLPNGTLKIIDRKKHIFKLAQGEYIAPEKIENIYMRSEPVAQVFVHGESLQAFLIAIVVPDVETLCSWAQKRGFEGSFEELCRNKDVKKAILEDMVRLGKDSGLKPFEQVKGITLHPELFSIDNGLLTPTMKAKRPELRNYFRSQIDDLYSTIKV
UniProt Q9UEY8: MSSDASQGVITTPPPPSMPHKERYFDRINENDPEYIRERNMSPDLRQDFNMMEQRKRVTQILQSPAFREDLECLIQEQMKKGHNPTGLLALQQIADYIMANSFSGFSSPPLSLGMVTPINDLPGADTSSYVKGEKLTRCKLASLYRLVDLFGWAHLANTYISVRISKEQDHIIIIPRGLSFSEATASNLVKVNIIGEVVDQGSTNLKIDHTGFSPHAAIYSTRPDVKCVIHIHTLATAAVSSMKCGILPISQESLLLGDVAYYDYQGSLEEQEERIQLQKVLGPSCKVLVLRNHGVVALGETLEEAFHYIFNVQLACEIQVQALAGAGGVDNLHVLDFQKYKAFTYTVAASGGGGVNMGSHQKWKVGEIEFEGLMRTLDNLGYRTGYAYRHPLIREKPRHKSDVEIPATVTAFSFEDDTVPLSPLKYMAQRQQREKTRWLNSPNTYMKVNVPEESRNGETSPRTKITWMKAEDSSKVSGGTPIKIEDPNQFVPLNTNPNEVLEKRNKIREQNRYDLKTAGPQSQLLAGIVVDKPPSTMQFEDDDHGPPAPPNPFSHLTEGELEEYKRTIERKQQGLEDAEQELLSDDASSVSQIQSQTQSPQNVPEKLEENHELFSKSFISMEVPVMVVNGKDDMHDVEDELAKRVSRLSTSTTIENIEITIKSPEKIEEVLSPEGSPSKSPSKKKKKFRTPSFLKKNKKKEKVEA

Key:
Assay in all cases: log2 fold change, soluble protein after heating vs DMSO (PISA); higher = thermal stabilisation; K562 lysate, 10 uM; active = over 0.2 and 3.5 SD of the protein, either way, in both replicates (recomputed)
vemurafenib = compound: CCCS(=O)(=O)Nc1ccc(F)c(C(=O)c2c[nH]c3ncc(-c4ccc(Cl)cc4)cc23)c1F [vemurafenib]
Outline: (§1)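 K562 pellets were dounce-homogenised in PBS pH 7.4 containing 1 mM MgCl2, and the crude extract, at 1 mg/mL protein, was exposed to 10 μM compound for 30 min. Aliquots were heated for 3 min across 48°C-58°C, pooled, brought to 0.5% NP-40 at 4°C and spun at 21,000xg for 90 min, with the supernatant taken as soluble protein. TMTpro 16plex LC-MS/MS with equalised channel sums quantified that protein. Values are log-two fold changes in thermal stability relative to solvent controls, taken from duplicates.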

[1] = compound: CCCS(=O)(=O)Nc1ccc(F)c(C(=O)c2c[nH]c3ncc(Cl)cc23)c1F
Outline: as §1

barasertib = compound: CCN(CCCOc1ccc2c(Nc3cc(CC(=O)Nc4cccc(F)c4)[nH]n3)ncnc2c1)CCOP(=O)(O)O [barasertib]
Outline: as §1

[2] = compound: CC[C@@H]1C(=O)N(C)c2cnc(Nc3ccc(C(=O)NC4CCN(C)CC4)cc3OC)nc2N1C1CCCC1
Outline: as §1

volasertib = compound: CC[C@@H]1C(=O)N(C)c2cnc(Nc3ccc(C(=O)N[C@H]4CC[C@H](N5CCN(CC6CC6)CC5)CC4)cc3OC)nc2N1C(C)C [volasertib]
Outline: as §1

[3] = compound: CCn1c(C(=O)N(C2CC2)C2CC2)cc2c3c(ncn3C)c(Nc3cc(C)n(C)n3)nc21
Outline: as §1

[4] = compound: CCn1cc(-c2ccnc3[nH]c(-c4cccc(CN(C)C)c4)cc23)c(-c2ccc(NC(=O)N(C)C)cc2)n1
Outline: as §1

[5] = compound: CN1CCC(CNc2ccc3ncc(-c4cccc(OC(F)(F)F)c4)n3n2)CC1
Outline: as §1

saracatinib = compound: CN1CCN(CCOc2cc(OC3CCOCC3)c3c(Nc4c(Cl)ccc5c4OCO5)ncnc3c2)CC1 [saracatinib]
Outline: as §1

sotrastaurin = compound: CN1CCN(c2nc(C3=C(c4c[nH]c5ccccc45)C(=O)NC3=O)c3ccccc3n2)CC1 [sotrastaurin]
Outline: as §1

Measured: log2 fold change

ADPRHL2 (UniProt Q9NX46)
inactive: vemurafenib -0.024 | [1] 0.002 | barasertib 0.036 | [2] -0.02 | volasertib -0.076 | [3] -0.007 | [4] -0.064 | [5] -0.079 | saracatinib 0.006 | sotrastaurin -0.02

ADSL (UniProt P30566)
inactive: vemurafenib 0.012 | [1] -0.003 | barasertib -0.042 | [2] 0.051 | volasertib 0.043 | [3] 0.004 | [4] 0.103 | [5] -0.07 | saracatinib 0.002 | sotrastaurin -0.01

AGL (UniProt P35573)
inactive: vemurafenib -0.014 | [1] 0.002 | barasertib -0.015 | [2] -0.063 | volasertib -0.058 | [3] 0.013 | [4] 0.131 | [5] -0.083 | saracatinib 0.013 | sotrastaurin 0.049

ADAMTS5 (UniProt Q9UNA0)
inactive: vemurafenib 0.063 | [1] 0.047 | barasertib 0.038 | [2] 0.066 | volasertib 0.038 | [3] -0.15 | [5] 0.292 | saracatinib 0.083 | sotrastaurin -0.045
active: [4] -0.939

AHCY (UniProt P23526)
inactive: vemurafenib -0.032 | [1] 0.001 | barasertib -0.019 | [2] -0.007 | volasertib 0.018 | [3] 0.009 | [4] -0.067 | [5] 0.046 | saracatinib -0.007 | sotrastaurin -0.017

ACSM3 (UniProt Q53FZ2)
inactive: vemurafenib 0.083 | [1] 0 | barasertib -0.022 | [2] -0.019 | volasertib -0.027 | [3] 0.001 | [4] 0.029 | [5] -0.033 | saracatinib 0.033 | sotrastaurin -0.017

AIP (UniProt O00170)
active: [4] 0.514
inactive: vemurafenib -0.002 | [1] 0.015 | barasertib -0.004 | [2] 0.017 | volasertib -0.004 | [3] -0.022 | [5] -0.019 | saracatinib -0.015 | sotrastaurin 0.007

ADRM1 (UniProt Q16186)
inactive: vemurafenib -0.01 | [1] 0.033 | barasertib 0.031 | [2] -0.026 | volasertib -0.036 | [3] 0.008 | [4] -0.024 | [5] -0.027 | saracatinib 0 | sotrastaurin 0.002

AGRN (UniProt O00468)
inactive: vemurafenib 0.046 | [1] 0.064 | barasertib -0.076 | [2] -0.032 | volasertib 0.035 | [3] 0.059 | [4] -0.085 | [5] 0.106 | saracatinib 0.042 | sotrastaurin 0.021

AK2 (UniProt P54819)
inactive: vemurafenib 0.014 | [1] 0.062 | barasertib -0.013 | [2] 0.029 | volasertib 0.013 | [3] -0.009 | [4] 0.119 | [5] -0.008 | saracatinib -0.015 | sotrastaurin -0.038

ACTB, A0A2R8Y793
inactive: vemurafenib 0.024 | [1] 0.032 | barasertib 0.012 | [2] -0.009 | volasertib -0.084 | [3] -0.022 | [4] -0.045 | [5] 0.012 | saracatinib 0.014 | sotrastaurin 0.014

AFTPH isoform 9 (UniProt Q6ULP2)
inactive: vemurafenib -0.01 | [1] 0.041 | barasertib 0.064 | [2] 0.124 | volasertib 0.017 | [3] 0.1 | [4] 0.007 | [5] -0.029 | saracatinib -0.01 | sotrastaurin -0.01

AFG3L2 (UniProt Q9Y4W6)
inactive: vemurafenib -0.022 | [1] 0.012 | barasertib 0.069 | [2] -0.03 | volasertib -0.011 | [3] 0.022 | [4] 0.063 | [5] -0.049 | saracatinib 0.026 | sotrastaurin -0.013

ACVR2B (UniProt Q13705)
inactive: vemurafenib 0.092

AHCYL2 (UniProt Q96HN2)
inactive: vemurafenib -0.025 | [1] -0.013 | barasertib 0.013 | [2] 0.044 | volasertib -0.008 | [3] -0.009 | [4] 0.003 | [5] 0.036 | saracatinib -0.073 | sotrastaurin 0.001

AGFG1 isoform 4 (UniProt P52594)
inactive: vemurafenib -0.01 | [1] 0.003 | barasertib -0.018 | [2] 0.032 | volasertib 0.026 | [3] 0.01 | [4] -0.02 | [5] 0.077 | saracatinib -0.006 | sotrastaurin -0.045

AIMP2 (UniProt Q13155)
inactive: vemurafenib -0.026 | [1] 0.022 | barasertib 0.031 | [2] -0.131 | volasertib -0.063 | [3] -0.019 | [4] -0.008 | [5] -0.079 | saracatinib 0.018 | sotrastaurin 0.015

AKAP8 (UniProt O43823)
inactive: vemurafenib 0.006 | [1] 0.044 | barasertib 0.056 | [2] -0.009 | volasertib -0.03 | [3] -0.013 | [4] -0.056 | [5] 0.044 | saracatinib 0.075 | sotrastaurin 0.008

AIFM1 (UniProt O95831)
inactive: vemurafenib 0.015 | [1] -0.002 | barasertib -0.036 | [2] -0.006 | volasertib -0.002 | [3] -0.026 | [4] 0.119 | [5] -0.008 | saracatinib -0.029 | sotrastaurin -0.001

ACTR6 (UniProt Q9GZN1)
inactive: vemurafenib 0.09 | [1] 0.007 | barasertib -0.059 | [2] 0.029 | volasertib 0.047 | [3] -0.083 | [4] -0.221 | [5] 0.121 | saracatinib 0.047 | sotrastaurin 0.097

ADPRH (UniProt P54922)
inactive: vemurafenib 0.198 | [1] -0.033 | barasertib 0.041 | [2] 0.062 | volasertib -0.023 | [3] 0.05 | [4] 0.057 | [5] -0.013 | saracatinib 0.022 | sotrastaurin -0.062

Seven consecutive records already listed:
AFG3L2 (UniProt Q9Y4W6)
inactive: vemurafenib -0.022 | [1] 0.012 | barasertib 0.069 | [2] -0.03 | volasertib -0.011 | [3] 0.022 | [4] 0.063 | [5] -0.049 | saracatinib 0.026 | sotrastaurin -0.013

ACVR2B (UniProt Q13705)
inactive: vemurafenib 0.092

AHCYL2 (UniProt Q96HN2)
inactive: vemurafenib -0.025 | [1] -0.013 | barasertib 0.013 | [2] 0.044 | volasertib -0.008 | [3] -0.009 | [4] 0.003 | [5] 0.036 | saracatinib -0.073 | sotrastaurin 0.001

AGFG1 isoform 4 (UniProt P52594)
inactive: vemurafenib -0.01 | [1] 0.003 | barasertib -0.018 | [2] 0.032 | volasertib 0.026 | [3] 0.01 | [4] -0.02 | [5] 0.077 | saracatinib -0.006 | sotrastaurin -0.045

AIMP2 (UniProt Q13155)
inactive: vemurafenib -0.026 | [1] 0.022 | barasertib 0.031 | [2] -0.131 | volasertib -0.063 | [3] -0.019 | [4] -0.008 | [5] -0.079 | saracatinib 0.018 | sotrastaurin 0.015

AKAP8 (UniProt O43823)
inactive: vemurafenib 0.006 | [1] 0.044 | barasertib 0.056 | [2] -0.009 | volasertib -0.03 | [3] -0.013 | [4] -0.056 | [5] 0.044 | saracatinib 0.075 | sotrastaurin 0.008

AIFM1 (UniProt O95831)
inactive: vemurafenib 0.015 | [1] -0.002 | barasertib -0.036 | [2] -0.006 | volasertib -0.002 | [3] -0.026 | [4] 0.119 | [5] -0.008 | saracatinib -0.029 | sotrastaurin -0.001

(further entries)

AHNAK (UniProt Q09666)
inactive: vemurafenib -0.026 | [1] 0.003 | barasertib 0.01 | [2] 0.079 | volasertib 0.046 | [3] -0.028 | [4] 0.037 | [5] 0.039 | saracatinib 0.011 | sotrastaurin -0.003

ADAM10 (UniProt O14672)
inactive: vemurafenib 0.032 | [1] 0.011 | barasertib -0.011 | [2] 0.033 | volasertib 0 | [3] 0.006 | [4] -0.228 | [5] 0.066 | saracatinib 0 | sotrastaurin 0.045

ADK (UniProt P55263)
inactive: vemurafenib -0.052 | [1] -0.036 | barasertib -0.054 | [3] -0.027 | [4] 0.044 | [5] 0.155 | saracatinib 0.043 | sotrastaurin 0.343
active: [2] 0.458 | volasertib 0.437

AIFM2 (UniProt Q9BRQ8)
inactive: vemurafenib -0.19 | [1] 0.091 | barasertib -0.029 | [2] -0.018 | volasertib -0.004 | [3] -0.089 | [4] -0.057 | [5] 0.149 | saracatinib -0.062 | sotrastaurin 0.036

AGO2 (UniProt Q9UKV8)
inactive: vemurafenib -0.001 | [1] 0.017 | barasertib 0.003 | [2] 0.015 | volasertib 0.026 | [3] 0.006 | [4] 0.052 | [5] -0.021 | saracatinib 0.007 | sotrastaurin 0.001

AFDN (UniProt J3KN01)
inactive: vemurafenib 0.021 | [1] 0.027 | barasertib 0.014 | [2] -0.016 | volasertib -0.022 | [3] -0.016 | [4] 0.027 | [5] -0.031 | saracatinib 0.012 | sotrastaurin -0.028

ADD1 isoform 4 (UniProt P35611)
inactive: vemurafenib 0.061 | [1] -0.003 | barasertib -0.089 | [2] 0.164 | volasertib 0.061 | [3] -0.345 | [4] -0.61 | [5] 0.397 | saracatinib 0.083

ACSL1 (UniProt P33121)
inactive: vemurafenib 0.021 | [1] 0.023 | barasertib 0.046 | [2] -0.054 | volasertib -0.1 | [3] 0.038 | [4] -0.014 | [5] -0.242 | saracatinib -0.066 | sotrastaurin -0.002

ADD3 (UniProt Q9UEY8)
inactive: vemurafenib -0.008 | [1] 0.027 | barasertib -0.013 | [2] 0.046 | volasertib 0.022 | [3] -0.044 | [4] -0.045 | [5] 0.04 | saracatinib 0.012 | sotrastaurin 0.012
